Source: PubChem BioAssay AID1053208 (Peter MacCallum Cancer Centre, 2014)
Shown is one part, drawn at random, of about 17,000 reagents tested. Over the whole deposit, 788 (4.7%) were called active. 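Calls rest on z-score classes alone; an extra cut-off of viability at most 70% of control was not applied to them.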 Not all columns of the deposit are shown. Reagent sequences are not shown.

- Assay: 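Synthetic lethal interactions between gene loss and doxorubicin in osteosarcoma cells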 (primary screen)
- Cell system: mouse osteosarcoma cells, early-passage culture from an engineered mouse model of fibroblastic bone tumour
- Reagent: siRNA pool against mouse genes, 40 nM
- Duration: about 120 h (48 h before drug, then 72 h with drug)
- Conditions: doxorubicin 100 nM for 72 h, roughly 30-40% inhibitory dose
- Measurement: 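Viability read as ATP luminescence after 72 h of 100 nM doxorubicin or none, duplicate wells averaged, scaled to non-targeting siRNA, then expressed as robust z-scores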
- Direction: viability z-score with doxorubicin: higher = more viable cells under doxorubicin; viability z-score without drug: higher = more viable cells with knock-down alone
- Rule for the call: 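a pool counts as active when its viability z-score with doxorubicin is -2 or below and its z-score without drug lies between -2 and 2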

| target gene | combined z-score class | viability z-score with doxorubicin | viability z-score without drug | Call |
| --- | --- | --- | --- | --- |
| Aif1l (allograft inflammatory factor 1-like) | no change with or without drug | -0.22 | 0.17 | inactive |
| Anln (anillin, actin binding protein) | low cell count without drug only | -1.46 | -2.53 | inactive |
| Brca2 (breast cancer 2, early onset) | low cell count without drug only | -1.46 | -2.02 | inactive |
| Chst2 (carbohydrate sulfotransferase 2) | no change with or without drug | 1.69 | 0.84 | inactive |
| Defa21 (defensin, alpha, 21) | no change with or without drug | 1.12 | 1.18 | inactive |
| Fscn1 (fascin actin-bundling protein 1) | no change with or without drug | 0.67 | -0.51 | inactive |
| Sh3gl3 (SH3-domain GRB2-like 3) | no change with or without drug | 0.45 | -0.84 | inactive |
| B630019K06Rik (RIKEN cDNA B630019K06 gene) | no change with or without drug | -1.12 | -1.18 | inactive |
| Crbn (cereblon) | no change with or without drug | 1.57 | 1.52 | inactive |
| Rgs20 (regulator of G-protein signaling 20) | low cell count without drug only | -1.35 | -4.72 | inactive |
| Sh3gl2 (SH3-domain GRB2-like 2) | no change with or without drug | 0.22 | 1.85 | inactive |
| Nfil3 (nuclear factor, interleukin 3, regulated) | no change with or without drug | 1.12 | 0.67 | inactive |

Continued, starting with the last 2 of the part before.
| target gene | combined z-score class | viability z-score with doxorubicin | viability z-score without drug | Call |
| --- | --- | --- | --- | --- |
| Sh3gl2 (SH3-domain GRB2-like 2) | no change with or without drug | 0.22 | 1.85 | inactive |
| Nfil3 (nuclear factor, interleukin 3, regulated) | no change with or without drug | 1.12 | 0.67 | inactive |
| Gpd1l (glycerol-3-phosphate dehydrogenase 1-like) | no change with or without drug | 0.67 | 0.84 | inactive |
| Mif | no change with or without drug | 1.01 | 0 | inactive |
| Garin1b (golgi associated RAB2 interactor 1B) | no change with or without drug | -0.22 | -0.51 | inactive |
| Lime1 (Lck interacting transmembrane adaptor 1) | no change with or without drug | 0 | -0.17 | inactive |
| Acly (ATP citrate lyase) | no change with or without drug | 0.34 | 0.17 | inactive |
| Hdac8 (histone deacetylase 8) | no change with or without drug | 0.67 | -0.84 | inactive |
| Dap (death-associated protein) | no change with or without drug | -1.69 | 0.34 | inactive |
| Or5p50 (olfactory receptor family 5 subfamily P member 50) | no change with or without drug | -0.67 | -1.52 | inactive |
